Results are given in words; binding and its absence hold for the method and conditions named. Binding seen in cells or lysates may run through a third protein. Some binding calls cover weakened binding; strength is not graded here.
Target: Ste5-Myc9 (S. cerevisiae) (UniProt P32917)
Assay: co-IP; whole cell extracts of EY1775 co-expressing the tagged proteins; IP with 9E10 (Myc) or anti-GFP polyclonal antibodies, immunoblot; modified H buffer with 200 mM NaCl, immunoprecipitation buffer 150 mM NaCl (results say 200 mM NaCl)

The chains behind the UniProt entries cited, without tags or fusion partners.
UniProt P32917: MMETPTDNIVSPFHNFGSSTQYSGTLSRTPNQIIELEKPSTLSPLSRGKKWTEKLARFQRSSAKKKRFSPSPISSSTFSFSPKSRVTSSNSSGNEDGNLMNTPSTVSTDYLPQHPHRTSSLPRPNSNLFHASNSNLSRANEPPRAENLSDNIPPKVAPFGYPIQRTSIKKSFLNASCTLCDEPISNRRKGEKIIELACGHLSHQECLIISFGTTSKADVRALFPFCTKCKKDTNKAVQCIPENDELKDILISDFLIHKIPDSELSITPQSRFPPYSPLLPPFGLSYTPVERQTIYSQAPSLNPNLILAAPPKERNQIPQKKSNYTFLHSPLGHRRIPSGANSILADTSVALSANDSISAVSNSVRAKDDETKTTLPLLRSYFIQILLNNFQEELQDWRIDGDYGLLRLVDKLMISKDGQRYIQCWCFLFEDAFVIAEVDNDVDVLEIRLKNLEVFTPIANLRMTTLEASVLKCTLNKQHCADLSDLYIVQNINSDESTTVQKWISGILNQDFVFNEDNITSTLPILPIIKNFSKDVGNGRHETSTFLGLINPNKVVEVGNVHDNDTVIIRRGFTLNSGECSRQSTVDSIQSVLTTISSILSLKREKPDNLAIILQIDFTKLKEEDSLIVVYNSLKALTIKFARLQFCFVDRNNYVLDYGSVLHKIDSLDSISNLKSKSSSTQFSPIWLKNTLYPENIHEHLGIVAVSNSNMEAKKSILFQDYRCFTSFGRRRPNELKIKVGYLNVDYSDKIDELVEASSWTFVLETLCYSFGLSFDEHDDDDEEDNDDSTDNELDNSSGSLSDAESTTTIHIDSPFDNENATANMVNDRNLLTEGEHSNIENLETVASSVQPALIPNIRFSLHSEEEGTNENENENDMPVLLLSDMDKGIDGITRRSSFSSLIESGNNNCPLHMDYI
UniProt P10591: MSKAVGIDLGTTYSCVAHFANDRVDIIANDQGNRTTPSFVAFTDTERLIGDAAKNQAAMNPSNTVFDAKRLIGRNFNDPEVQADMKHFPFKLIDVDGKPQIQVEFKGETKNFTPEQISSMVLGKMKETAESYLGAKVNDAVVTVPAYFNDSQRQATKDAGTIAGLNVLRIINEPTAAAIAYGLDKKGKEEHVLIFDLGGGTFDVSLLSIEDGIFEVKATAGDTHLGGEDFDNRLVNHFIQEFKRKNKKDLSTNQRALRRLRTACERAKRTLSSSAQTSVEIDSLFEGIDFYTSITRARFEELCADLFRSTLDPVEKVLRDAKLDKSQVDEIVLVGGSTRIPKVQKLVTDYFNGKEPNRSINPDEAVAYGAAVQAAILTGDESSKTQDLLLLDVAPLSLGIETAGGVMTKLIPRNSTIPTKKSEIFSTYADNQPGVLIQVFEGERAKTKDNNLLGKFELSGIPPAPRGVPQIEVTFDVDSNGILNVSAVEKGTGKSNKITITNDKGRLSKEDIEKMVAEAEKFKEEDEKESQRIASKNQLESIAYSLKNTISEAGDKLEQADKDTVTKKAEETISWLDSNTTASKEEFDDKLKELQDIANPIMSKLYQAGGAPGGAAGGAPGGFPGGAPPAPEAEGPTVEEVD

binding: binds
Substance: Ssa1-GFP (from UniProt P10591 1-642)

From publication PMC10584130
